Data as given in PubChem BioAssay AID1053208 (Peter MacCallum Cancer Centre, 2014)

Screen: 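Synthetic lethal interactions between gene loss and doxorubicin in osteosarcoma cells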 (primary screen)
Cell system: mouse osteosarcoma cells, early-passage culture from an engineered mouse model of fibroblastic bone tumour
Reagent: siRNA pool against mouse genes, 40 nM
Timing: about 120 h (48 h before drug, then 72 h with drug)
Conditions: doxorubicin 100 nM for 72 h, roughly 30-40% inhibitory dose
Detection: 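Luminescent ATP signal taken as viability with or without 100 nM doxorubicin for 72 h; mean of two wells set against non-targeting siRNA and turned into robust z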
Reading the numbers: viability z-score with doxorubicin and doxorubicin viability vs non-targeting: higher = more viable cells under doxorubicin; viability z-score without drug: higher = more viable cells with knock-down alone; z-score of drug to no-drug ratio: higher = less drug sensitisation by knock-down
Hit rule: 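a pool counts as active when its viability z-score with doxorubicin is -2 or below and its z-score without drug lies between -2 and 2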
Here is a random part of about 17,000 reagents tested. 788 of all reagents (4.7%) count as active. 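Calls rest on z-score classes alone; an extra cut-off of viability at most 70% of control was not applied to them.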 The numbers tell different reagents against one gene apart. Some reagents were tested in more than one well and are listed for each.

no.	gene	reagent	combined z-score class	viability z-score with doxorubicin	viability z-score without drug	z-score of drug to no-drug ratio	doxorubicin viability vs non-targeting	Call
1	Gpr19 (GeneID 14760)	1	no change with or without drug	-0.79	-0.84	-0.11	0.87	inactive
2	Ust (GeneID 338362)	1	no change with or without drug	0	0.34	-0.11	0.94	inactive
3	Col9a1 (GeneID 12839)	1	no change with or without drug	0.56	0.51	0.34	0.99	inactive
4	Vstm2b (GeneID 58188)	1	no change with or without drug	-0.45	-1.01	0.34	0.9	inactive
5	Ncmap (GeneID 230822)	1	no change with or without drug	0	-0.17	0.22	0.94	inactive
6	Sema3a (GeneID 20346)	1	no change with or without drug	0.22	0.34	0.11	0.96	inactive
7	Mylpf (GeneID 17907)	1	no change with or without drug	0.9	1.01	0.34	1.02	inactive
8	Tjp1 (GeneID 21872)	1	no change with or without drug	-0.22	-0.17	0	0.92	inactive
9	Psme3ip1 (GeneID 102122)	1	no change with or without drug	-0.9	-0.84	-0.22	0.86	inactive
10	Ccnt2 (GeneID 72949)	1	no change with or without drug	0.22	1.18	-0.45	0.96	inactive
11	Shc2 (GeneID 216148)	1	no change with or without drug	-0.22	0.51	-0.45	0.92	inactive
12	Spag5 (GeneID 54141)	1	no change with or without drug	-0.67	0.34	-0.79	0.88	inactive
13	Mmp9 (GeneID 17395)	1	no change with or without drug	0.56	1.18	-0.11	0.99	inactive
14	Nme4 (GeneID 56520)	1	no change with or without drug	0.67	-0.51	1.24	1	inactive
15	Rela (GeneID 19697)	1	no change with or without drug	-0.45	0.34	-0.56	0.9	inactive
16	Mib1 (GeneID 225164)	1	no change with or without drug	0	0.51	-0.22	0.94	inactive
17	Dhx8 (GeneID 217207)	1	no change with or without drug	0.34	-0.17	0.56	0.97	inactive
18	Hdac9 (GeneID 79221)	1	no change with or without drug	1.46	-0.51	2.02	1.07	inactive
19	Stil (GeneID 20460)	1	no change with or without drug	0.22	-0.84	1.01	0.96	inactive
20	Pdlim5 (GeneID 56376)	1	no change with or without drug	1.12	-1.01	2.14	1.04	inactive
21	Pdlim5 (GeneID 56376)	1	no change with or without drug	-1.57	1.35	-2.25	0.8	inactive
22	Prmt6 (GeneID 99890)	1	no change with or without drug	-1.12	0.67	-1.46	0.84	inactive
23	Inpp5j (GeneID 170835)	1	no change with or without drug	0.34	-0.67	1.01	0.97	inactive
24	Chst1 (GeneID 76969)	1	no change with or without drug	-0.56	0.17	-0.56	0.89	inactive
25	Gpc3 (GeneID 14734)	1	no change with or without drug	-0.11	-0.51	0.34	0.93	inactive
26	Prss16 (GeneID 54373)	1	no change with or without drug	0.34	0.34	0.22	0.97	inactive
27	Hsd17b6 (GeneID 27400)	1	no change with or without drug	-0.22	0.51	-0.45	0.92	inactive
28	Dlx3 (GeneID 13393)	1	no change with or without drug	-0.11	-0.17	0.11	0.93	inactive
29	Dmrt2 (GeneID 226049)	1	no change with or without drug	-0.34	-0.67	0.22	0.91	inactive
30	4932414N04Rik (GeneID 75721)	1	no change with or without drug	0.45	-0.34	0.79	0.98	inactive
31	Impdh1 (GeneID 23917)	1	no change with or without drug	0	1.18	-0.67	0.94	inactive
32	4933405O20Rik (GeneID 243996)	1	no change with or without drug	-0.45	1.52	-1.24	0.9	inactive
33	Ptch2 (GeneID 19207)	1	no change with or without drug	0.56	0.17	0.56	0.99	inactive
34	Kcnrg (GeneID 328424)	1	no change with or without drug	0	0.17	0	0.94	inactive
35	Rcn3 (GeneID 52377)	1	no change with or without drug	-1.91	-0.51	-1.57	0.77	inactive
36	Syt7 (GeneID 54525)	1	no change with or without drug	0.67	-0.67	1.35	1	inactive
37	Sbk1 (GeneID 104175)	1	no change with or without drug	-0.34	-0.17	-0.11	0.91	inactive
38	Snca (GeneID 20617)	1	no change with or without drug	-0.67	-0.84	0	0.88	inactive
39	C130026L21Rik (GeneID 330164)	1	no change with or without drug	0.45	-0.17	0.67	0.98	inactive
40	Ncs1 (GeneID 14299)	1	no change with or without drug	0.11	-0.17	0.34	0.95	inactive
41	Eif2ak3 (GeneID 13666)	1	no change with or without drug	0.22	-0.84	1.01	0.96	inactive
42	Slc43a3 (GeneID 58207)	1	no change with or without drug	-0.11	-0.17	0.11	0.93	inactive
43	Tapbpl (GeneID 213233)	1	no change with or without drug	0	0.84	-0.45	0.94	inactive
44	Tpm3 (GeneID 59069)	1	no change with or without drug	-0.56	-0.34	-0.22	0.89	inactive
45	Or13p8 (GeneID 258301)	1	no change with or without drug	-0.11	-0.51	0.34	0.93	inactive
46	Pfdn5 (GeneID 56612)	1	no change with or without drug	1.46	1.18	0.79	1.07	inactive
47	Pfdn5 (GeneID 56612)	2	high cell count with doxorubicin only	2.25	1.52	1.35	1.14	inactive
48	Bora (GeneID 77744)	1	low cell count with doxorubicin only	-2.02	-1.85	-0.9	0.76	active
49	Gtf2ird1 (GeneID 57080)	1	no change with or without drug	0.22	-1.18	1.24	0.96	inactive
50	Kcng3 (GeneID 225030)	1	no change with or without drug	0.45	0	0.56	0.98	inactive

5 entries from above, set out differently:
gene	reagent	combined z-score class	viability z-score with doxorubicin	viability z-score without drug	z-score of drug to no-drug ratio	doxorubicin viability vs non-targeting	Call
Mib1 (GeneID 225164)	1	no change with or without drug	0	0.51	-0.22	0.94	inactive
Dhx8 (GeneID 217207)	1	no change with or without drug	0.34	-0.17	0.56	0.97	inactive
Hdac9 (GeneID 79221)	1	no change with or without drug	1.46	-0.51	2.02	1.07	inactive
Stil (GeneID 20460)	1	no change with or without drug	0.22	-0.84	1.01	0.96	inactive
Pdlim5 (GeneID 56376)	1	no change with or without drug	1.12	-1.01	2.14	1.04	inactive
